Assay results: article PMC5302884
Positions count from the first letter of the chain named. Numbers in names are those of the source. Results are given in words; binding and its absence hold for the method and conditions named. For some of these results: Binding seen in cells or lysates may run through a third protein. Some entries that bind do so weakly or less than the wild type.

Experiments:
Bak L19C (human) [1] = target: Bak L19C (human) (UniProt Q16611); test: cross-linking; membrane fractions treated with tBid, then 1% digitonin added before CuPhe; non-reducing SDS-PAGE; linkage within dimers
Bak L19C (human) [2] = target: Bak L19C (human) (UniProt Q16611); test: cross-linking; membrane fractions incubated with tBid (100 nM, 30 min, 30°C), pre-chilled, CuPhe on ice 15 min; non-reducing SDS-PAGE, immunoblot for Bak; 2x complexes
Bak L19C (human) [3] = target: Bak L19C (human) (UniProt Q16611); test: cross-linking + native gel or EMSA; membrane fractions incubated with tBid, CuPhe on ice, then solubilised in 1% digitonin and run on blue native PAGE; 4x and greater complexes mean linkage between dimers (dimers to higher order complexes)
Bak V61C (human) [4] = target: Bak V61C (human) (UniProt Q16611); test: cross-linking; membrane fractions treated with tBid^M97A, then with or without recombinant Bax, Bcl-xL or Mcl-1ΔN151ΔC23, then CuPhe; non-reducing SDS-PAGE
Bak V61C (human) [5] = target: Bak V61C (human) (UniProt Q16611); test: cross-linking; membrane fractions incubated with tBid (100 nM, 30 min, 30°C), pre-chilled, CuPhe on ice 15 min; non-reducing SDS-PAGE, immunoblot for Bak; 2x complexes
Bak V61C (human) [6] = target: Bak V61C (human) (UniProt Q16611); test: cross-linking + native gel or EMSA; membrane fractions heated to 43°C for 30 min instead of tBid, then CuPhe; blue native PAGE and non-reducing SDS-PAGE
Bak H164C (human) [7] = target: Bak H164C (human) (UniProt Q16611); test: cross-linking; membrane fractions incubated with tBid, then CuPhe for 15 min at 30°C instead of 0°C; non-reducing SDS-PAGE and blue native PAGE
Bak H164C (human) [8] = target: Bak H164C (human) (UniProt Q16611); test: cross-linking; membrane fractions treated with tBid^M97A, then with or without recombinant Bax, Bcl-xL or Mcl-1ΔN151ΔC23, then CuPhe; non-reducing SDS-PAGE
Bak H164C (human) [9] = target: Bak H164C (human) (UniProt Q16611); test: cross-linking; membrane fractions incubated with tBid (100 nM, 30 min, 30°C), pre-chilled, CuPhe on ice 15 min; non-reducing SDS-PAGE, immunoblot for Bak; 2x complexes
Bak H164C (human) [10] = target: Bak H164C (human) (UniProt Q16611); test: cross-linking + native gel or EMSA; membrane fractions incubated with tBid, CuPhe on ice, then solubilised in 1% digitonin and run on blue native PAGE; 4x and greater complexes mean linkage between dimers (dimers to higher order complexes)
Bak H145C (human) = Bak H145C (human) (UniProt Q16611); test: as above
[11] = target: Bak Cys null (BakΔCys, C14S/C166S) (human) (UniProt Q16611); test: native gel or EMSA; membrane fractions incubated with tBid, no disulphide bond formed (no cysteine or no CuPhe); 1% digitonin, blue native PAGE
Bak L199C (human) = Bak L199C (human) (UniProt Q16611); test: cross-linking; membrane fractions incubated with tBid, then CuPhe for 15 min at 30°C instead of 0°C; non-reducing SDS-PAGE and blue native PAGE

B1: Bak L19C (protein, UniProt Q16611 1-211)
chain: MASGQGPGPPRQESGEPACPSASEEQVAQDTEEVFRSYVFYRHQQEQEAEGVAAPADPEMVTLPLQPSSTMGQVGRQLAIIGDDINRRYDSEFQTMLQHLQPTAENAYEYFTKIATSLFESGINWGRVVALLGFGYRLALHVYQHGLTGFLGQVTRFVVDFMLHHSIARWIAQRGGWVAALNLGNGPILNVLVVLGVVLLGQFVVRRFFKS
How did the binding (Bak L19C (human) [1]) turn out when B1 was run?
The binding was “binds”.

And the binding (Bak L19C (human) [2])?
The binding was “binds”.

And the binding (Bak L19C (human) [3])?
Its binding is “binds”.

B2: Bak V61C (protein, UniProt Q16611 1-211)
chain: B1 chain with C19L, V61C
B2 was tested. Which binding (Bak V61C (human) [4]) did it give?
The binding was “binds”.

And the binding (Bak V61C (human) [5])?
The binding was “binds”.

What about the binding (Bak V61C (human) [6]) of the same binder?
The binding was “binds”.

B3: Bak H164C (protein, UniProt Q16611 1-211)
chain: B1 chain with C19L, H164C
B3 was tested. Which binding (Bak H164C (human) [7]) did it give?
Its binding is “binds”.

What about the binding (Bak H164C (human) [8]) of the same binder?
Its binding is “binds”.

What about the binding (Bak H164C (human) [9]) of the same binder?
Its binding is “binds”.

What about the binding (Bak H164C (human) [10]) of the same binder?
The binding was “binds”.

B4: Bak H145C (protein, UniProt Q16611 1-211)
chain: B1 chain with C19L, H145C
Which binding (Bak H145C (human)) does the source give for B4 here?
The binding was “binds”.

B5: Bak Cys null (BakΔCys, C14S/C166S) (protein, UniProt Q16611 1-211)
chain: B1 chain with C19L
How did the binding [11] turn out when B5 was run?
Its binding is “binds”.

B6: Bak L199C (protein, UniProt Q16611 1-211)
chain: B1 chain with C19L, L199C
How did the binding (Bak L199C (human)) turn out when B6 was run?
Its binding is “binds”.
